Laboratory results published in patent EP0199291A1 (priority 1985, dated 1986).
Like-named read-outs stand apart in the source and are kept apart here.

How the values were obtained:
[1] = system: CTL-Precursorzellen; details: microcultures with EL-4 supernatant (2 units IL-2); Fig. 4
[2] = system: C57BL/6; details: 5-day cultures (Fig. 1)
[3] = system: TNP-C3H
[4] = system: con-A-aktivierte C3H Milzzellen; details: 9 x 10^-3 mol/l; Con A 5 µg/ml; 24 h (Fig. 5)
[5] = system: trinitrophenylierte C3H Targetzellen; details: injected into the four foot pads at immunisation; tested after 5 days (Fig. 1)
[6] = system: allogene C57BL/6 Zellen; details: Cyclophosphamide-treated C3H mice; response already relatively weak without treatment
[7] = system: C3H Thymocyten; details: Concanavalin A plus 2 units IL-2; 3 days (Fig. 7)
[8] = system: L 929-Zellen und Vesicular Stomatitis Virus (Indiana-Stamm); details: control solutions with increasing amounts in culture medium
[9] = system: W-2 T-Zellklon; details: 0,5 units IL-2; 20 h; increasing doses (Fig. 8)

## NCCC[C@H](N)C(=O)O [L-Ornithin]
[1]
  Effekt auf cytotoxische Antworten in IL-2-haltigen Kulturen: starken suppressiven Effekt
[2]
  Wirkung auf in vitro-cytotoxische Antworten gegen allogene Targetzellen: starke suppressive Wirkung
[3]; 5-day cultures (Fig. 1)
  Wirkung auf in vitro-cytotoxische Antworten gegen haptenierte syngene Targetzellen: starke suppressive Wirkung
[3]; 9 x 10^-3 mol/l
  cytotoxische Antworten: vollständig supprimiert
[3]; added during the first two days of the reaction
  cytotoxische Antworten: stark supprimiert
[3]; added on day 3
  cytotoxische Antworten: wesentlich weniger gehemmt
[4]
  Effekt auf die Produktion von IFN-Y: keinen wesentlichen Effekt
[5]
  Wirkung auf in vivo-cytotoxische Antworten gegen haptenierte syngene Targetzellen: starke suppressive Wirkung
[6]
  cytotoxische Antwort gegen allogene C57BL/6 Zellen in vivo: supprimiert
[7]
  Effekt auf die DNA-Synthese der reagierenden Lymphozyten: keinen Effekt
[8]
  Interferon-Aktivität (of the substance itself): keine Interleukin-2 oder Interferon-Aktivität
[9]
  Wirkung auf die DNA-Synthese dieses T-Zellklons: keine Wirkung
